By UniProt entry, the sequences of proteins in these tests, tags left out.
UniProt Q9NRN9: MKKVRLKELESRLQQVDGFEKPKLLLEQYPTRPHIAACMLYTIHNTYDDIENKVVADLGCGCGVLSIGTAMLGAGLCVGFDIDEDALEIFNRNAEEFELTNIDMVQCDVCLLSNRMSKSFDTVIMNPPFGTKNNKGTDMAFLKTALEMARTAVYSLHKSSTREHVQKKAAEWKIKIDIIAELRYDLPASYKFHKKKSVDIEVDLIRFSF

According to PMC13128453, “Complexoform-restricted covalent TRMT112 ligands that allosterically agonize METTL5” (Nature Chemical Biology, 2025):

T1: WT-TRMT112–FLAG (human) (UniProt Q9UI30)
T1 sequence: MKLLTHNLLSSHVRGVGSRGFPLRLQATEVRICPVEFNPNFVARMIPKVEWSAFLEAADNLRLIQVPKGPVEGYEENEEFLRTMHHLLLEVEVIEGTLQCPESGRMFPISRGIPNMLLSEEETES

B1: TRMT11 (enzyme, UniProt Q7Z4G4 1-463)
chain: MALSCTLNRYLLLMAQEHLEFRLPEIKSLLLLFGGQFASSQETYGKSPFWILSIPSEDIARNLMKRTVCAKSIFELWGHGQSPEELYSSLKNYPVEKMVPFLHSDSTYKIKIHTFNKTLTQEEKIKRIDALEFLPFEGKVNLKKPQHVFSVLEDYGLDPNCIPENPHNIYFGRWIADGQRELIESYSVKKRHFIGNTSMDAGLSFIMANHGKVKENDIVFDPFVGTGGLLIACAHFGAYVYGTDIDYNTVHGLGKATRKNQKWRGPDENIRANLRQYGLEKYYLDVLVSDASKPSWRKGTYFDAIITDPPYGIRESTRRTGSQKEIPKGIEKWEKCPESHVPVSLSYHLSDMFLDLLNFAAETLVLGGRLVYWLPVYTPEYTEEMVPWHPCLELVSNCEQKLSSHTSRRLITMEKVKKFENRDQYSHLLSDHFLPYQGHNSFREKYFSGVTKRIAKEEKSTQE
B2: THUMPD3 (enzyme, UniProt Q9BV44 1-507)
chain: MCDIEEATNQLLDVNLHENQKSVQVTESDLGSESELLVTIGATVPTGFEQTAADEVREKLGSSCKISRDRGKIYFVISVESLAQVHCLRSVDNLFVVVQEFQDYQFKQTKEEVLKDFEDLAGKLPWSNPLKVWKINASFKKKKAKRKKINQNSSKEKINNGQEVKIDQRNVKKEFTSHALDSHILDYYENPAIKEDVSTLIGDDLASCKDETDESSKEETEPQVLKFRVTCNRAGEKHCFTSNEAARDFGGAVQDYFKWKADMTNFDVEVLLNIHDNEVIVGIALTEESLHRRNITHFGPTTLRSTLAYGMLRLCDPLPYDIIVDPMCGTGAIPIEGATEWSDCFHIAGDNNPLAVNRAANNIASLLTKSQIKEGKPSWGLPIDAVQWDICNLPLRTGSVDIIVTDLPFGKRMGSKKRNWNLYPACLREMSRVCTPTTGRAVLLTQDTKCFTKALSGMRHVWRKVDTVWVNVGGLRAAVYVLIRTPQAFVHPSEQDGERGTLWQCKE
B3: BUD23 (enzyme, UniProt O43709 1-281)
chain: MASRGRRPEHGGPPELFYDETEARKYVRNSRMIDIQTRMAGRALELLYLPENKPCYLLDIGCGTGLSGSYLSDEGHYWVGLDISPAMLDEAVDREIEGDLLLGDMGQGIPFKPGTFDGCISISAVQWLCNANKKSENPAKRLYCFFASLFSVLVRGSRAVLQLYPENSEQLELITTQATKAGFSGGMVVDYPNSAKAKKFYLCLFSGPSTFIPEGLSENQDEVEPRESVFTNERFPLRMSRRGMVRKSRAWVLEKKERHRRQGREVRPDTQYTGRKRKPRF
B4: WT-TRMT112–FLAG (protein, UniProt Q9UI30 1-125)
chain: T1 sequence

Tests used:
[1] = target: T1, WT-TRMT112–FLAG (human); assay: affinity purification with mass spectrometry; anti-FLAG (anti-DYKDDDDK magnetic agarose) IP of TRMT112–FLAG from lysates of HCT116 TRMT112–FLAG cells (50 mM EPPS pH 7.5, 150 mM NaCl, 1% Nonidet P-40; 2 h, 4 °C), parental HCT116 as control; cells treated with DMSO or FWG-1B (50 µM, 4 h); TMT MS
[2] = target: HA–METTL5 (human) (UniProt Q9NRN9); assay: affinity purification with mass spectrometry; anti-HA magnetic beads IP of HA–METTL5 from lysates of HCT116 TRMT112–FLAG:HA–METTL5 cells (50 mM EPPS pH 7.5, 150 mM NaCl, 1% Nonidet P-40; 2 h, 4 °C); cells treated with DMSO or FWG-33B (5 µM, 4 h); TRMT112 tryptic peptides quantified by TMT MS

Row | Molecule | binding [1] | binding [2]
1 | METTL5 (endogenous) (from UniProt Q9NRN9 1-209) (enzyme) | binds | –
2 | B1 | binds | –
3 | B2 | binds | –
4 | B3 | binds | –
5 | B4 | – | binds

Results are given in words; binding and its absence hold for the method and conditions named. Binding seen in cells or lysates may run through a third protein. A yes stands for co-enrichment or nearness to the bait. Other partners may have been found. Sequences can lack the tags named with a protein.
